Laboratory results: PMC4764856
No constants are given. Whether binding was seen depends on the method and setting. In cells and extracts the contact can be indirect. Some results given as binding are weak or reduced against the parent protein; the word gives no strength.

Biological target: GFP-Smad2, Q15796
Experiment: co-IP; HEK 293 cells stably expressing the GFP fusion, with or without Activin for 1 hr; lysed in cold RIPA buffer; GFP antibody with Protein-G Sepharose beads, 4 °C overnight; blot with anti-Smad4
Conditions: remark: other sources report otherwise

binding: binds
B1: Smad4, Q13485 1-552 (protein)
chain: MDNMSITNTPTSNDACLSIVHSLMCHRQGGESETFAKRAIESLVKKLKEKKDELDSLITAITTNGAHPSKCVTIQRTLDGRLQVAGRKGFPHVIYARLWRWPDLHKNELKHVKYCQYAFDLKCDSVCVNPYHYERVVSPGIDLSGLTLQSNAPSSMMVKDEYVHDFEGQPSLSTEGHSIQTIQHPPSNRASTETYSTPALLAPSESNATSTANFPNIPVASTSQPASILGGSHSEGLLQIASGPQPGQQQNGFTGQPATYHHNSTTTWTGSRTAPYTPNLPHHQNGHLQHHPPMPPHPGHYWPVHNELAFQPPISNHPAPEYWCSIAYFEMDVQVGETFKVPSSCPIVTVDGYVDPSGGDRFCLGQLSNVHRTEAIERARLHIGKGVQLECKGEGDVWVRCLSDHAVFVQSYYLDREAGRAPGDAVHKIYPSAYIKVFDLRQCHRQMQQQAATAQAAAAAQAAAVAGNIPGPGSVGGIAPAISLSAAAGIGVDDLRRLCILRMSFVKGWGPDYPRQSIKETPCWIEIHLHRALQLLDEVLHTMPIADPQPLD
